## Library screen at single concentrations

The chains behind the UniProt entries cited, without tags or fusion partners. Residues count along the entry.
UniProt P9WNZ1, whole entry: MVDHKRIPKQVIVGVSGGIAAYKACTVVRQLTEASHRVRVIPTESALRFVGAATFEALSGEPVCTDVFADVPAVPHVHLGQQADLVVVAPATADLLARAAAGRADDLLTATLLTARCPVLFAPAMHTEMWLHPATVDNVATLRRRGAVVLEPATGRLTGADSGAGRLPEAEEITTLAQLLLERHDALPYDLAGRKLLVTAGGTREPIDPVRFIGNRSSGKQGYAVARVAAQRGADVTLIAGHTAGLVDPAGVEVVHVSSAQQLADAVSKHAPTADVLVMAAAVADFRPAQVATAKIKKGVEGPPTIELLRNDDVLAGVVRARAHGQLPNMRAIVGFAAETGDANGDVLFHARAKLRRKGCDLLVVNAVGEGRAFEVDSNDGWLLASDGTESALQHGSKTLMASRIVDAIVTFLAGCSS
UniProt I6X8D2, whole entry: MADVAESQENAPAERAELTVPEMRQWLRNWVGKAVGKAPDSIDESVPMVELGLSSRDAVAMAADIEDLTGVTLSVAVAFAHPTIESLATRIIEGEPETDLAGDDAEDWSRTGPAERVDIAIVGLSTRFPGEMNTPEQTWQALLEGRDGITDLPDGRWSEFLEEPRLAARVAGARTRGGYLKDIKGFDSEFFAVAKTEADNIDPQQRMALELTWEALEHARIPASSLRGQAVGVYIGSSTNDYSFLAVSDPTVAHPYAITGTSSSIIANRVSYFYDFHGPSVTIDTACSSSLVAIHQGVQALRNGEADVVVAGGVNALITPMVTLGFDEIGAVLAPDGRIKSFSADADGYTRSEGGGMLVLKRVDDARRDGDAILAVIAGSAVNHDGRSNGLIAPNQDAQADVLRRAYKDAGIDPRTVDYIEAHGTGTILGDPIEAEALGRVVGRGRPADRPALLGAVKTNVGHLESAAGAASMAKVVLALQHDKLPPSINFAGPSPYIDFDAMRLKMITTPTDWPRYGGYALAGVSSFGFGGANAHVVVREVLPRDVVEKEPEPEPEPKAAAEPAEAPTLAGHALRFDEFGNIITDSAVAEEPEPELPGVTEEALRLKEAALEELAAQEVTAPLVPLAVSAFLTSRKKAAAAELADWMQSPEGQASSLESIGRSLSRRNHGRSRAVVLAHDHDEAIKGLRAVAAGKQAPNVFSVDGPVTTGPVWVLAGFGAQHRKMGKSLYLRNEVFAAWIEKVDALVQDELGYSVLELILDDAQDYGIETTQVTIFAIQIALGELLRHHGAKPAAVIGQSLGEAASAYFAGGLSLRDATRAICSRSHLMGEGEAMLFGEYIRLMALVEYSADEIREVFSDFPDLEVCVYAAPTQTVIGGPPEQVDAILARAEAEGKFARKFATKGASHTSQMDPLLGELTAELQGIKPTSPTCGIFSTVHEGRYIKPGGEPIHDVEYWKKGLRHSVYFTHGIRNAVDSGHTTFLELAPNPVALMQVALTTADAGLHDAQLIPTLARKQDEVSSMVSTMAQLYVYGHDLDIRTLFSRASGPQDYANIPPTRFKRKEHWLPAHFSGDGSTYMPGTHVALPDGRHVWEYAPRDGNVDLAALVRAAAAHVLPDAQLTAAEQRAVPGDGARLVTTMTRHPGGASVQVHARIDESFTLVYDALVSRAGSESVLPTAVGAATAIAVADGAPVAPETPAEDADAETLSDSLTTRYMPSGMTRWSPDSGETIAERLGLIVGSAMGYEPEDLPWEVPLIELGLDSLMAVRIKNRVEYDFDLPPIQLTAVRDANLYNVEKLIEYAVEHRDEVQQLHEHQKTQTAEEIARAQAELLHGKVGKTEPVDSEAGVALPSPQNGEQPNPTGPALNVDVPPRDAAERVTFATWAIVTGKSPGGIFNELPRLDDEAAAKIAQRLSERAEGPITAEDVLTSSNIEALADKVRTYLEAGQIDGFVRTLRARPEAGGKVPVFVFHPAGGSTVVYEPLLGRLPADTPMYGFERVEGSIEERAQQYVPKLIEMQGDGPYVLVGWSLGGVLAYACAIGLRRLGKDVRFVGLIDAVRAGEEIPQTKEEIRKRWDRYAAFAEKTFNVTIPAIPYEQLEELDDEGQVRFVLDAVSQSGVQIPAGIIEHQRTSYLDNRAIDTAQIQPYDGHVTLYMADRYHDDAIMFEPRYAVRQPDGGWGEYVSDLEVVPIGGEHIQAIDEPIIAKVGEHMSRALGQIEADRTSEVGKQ
UniProt P9WFT3, whole entry: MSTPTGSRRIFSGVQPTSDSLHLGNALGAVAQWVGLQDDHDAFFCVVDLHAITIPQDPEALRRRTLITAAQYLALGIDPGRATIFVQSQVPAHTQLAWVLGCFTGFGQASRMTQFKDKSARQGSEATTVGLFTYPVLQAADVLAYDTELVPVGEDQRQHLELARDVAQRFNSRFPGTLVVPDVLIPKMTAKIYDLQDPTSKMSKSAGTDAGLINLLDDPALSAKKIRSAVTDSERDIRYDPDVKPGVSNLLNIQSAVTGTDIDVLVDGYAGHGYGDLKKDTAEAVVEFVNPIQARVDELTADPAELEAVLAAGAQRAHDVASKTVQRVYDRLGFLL
UniProt A4I591, 1-473: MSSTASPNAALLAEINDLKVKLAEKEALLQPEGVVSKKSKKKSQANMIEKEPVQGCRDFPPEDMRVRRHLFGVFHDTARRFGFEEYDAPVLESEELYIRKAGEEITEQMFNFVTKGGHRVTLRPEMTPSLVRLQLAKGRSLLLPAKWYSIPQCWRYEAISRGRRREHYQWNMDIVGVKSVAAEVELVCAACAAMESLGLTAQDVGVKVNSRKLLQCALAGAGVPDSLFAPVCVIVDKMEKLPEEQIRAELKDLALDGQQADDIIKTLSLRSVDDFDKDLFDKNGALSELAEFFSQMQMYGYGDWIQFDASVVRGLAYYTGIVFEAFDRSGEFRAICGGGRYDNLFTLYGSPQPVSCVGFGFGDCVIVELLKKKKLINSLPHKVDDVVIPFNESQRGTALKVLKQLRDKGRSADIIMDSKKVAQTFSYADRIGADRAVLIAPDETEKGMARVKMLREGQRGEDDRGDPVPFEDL

Values are the deposited “Percent Effect”, in %. How 0% and 100% were set is not recorded. Most values in the screen are low, and negative values occur. This is an unselected part of the compounds tested. A dash means the value is not listed here; it may have been measured.

A: 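Coenzyme A biosynthesis protein CoaBC, Mycobacterium tuberculosis (UniProt P9WNZ1). Enzyme assay of CoaBC with a phosphate dye (Biomol Green) read at 650 nm. Concentration: 30 µM. Higher reads as stronger inhibition, judged from the few compounds that gave an IC50. Most strong results did not repeat in a second test. About 67,000 compounds were tested under these conditions; 0.06% (about 40) showed 50% or more at least once.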
B: 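Enzyme assay of the thioesterase domain of polyketide synthase 13; the read-out is not stated. Target: Polyketide synthase Pks13, Mycobacterium tuberculosis (UniProt I6X8D2). Concentration: 30 µM. Higher reads as stronger inhibition (inferred from which compounds were picked for retests). Of about 67,000 compounds tested this way, about 300 (0.46%) reached 50% or more in at least one test.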
C: 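Tryptophan-tRNA ligase, Mycobacterium tuberculosis (UniProt P9WFT3). Enzyme assay of tryptophanyl-tRNA synthetase; the read-out is not stated. Concentration: 10 µM. Direction is not recorded; retested compounds ran higher, which suggests that high means inhibition. Of about 65,000 compounds tested this way, about 64 (0.098%) reached 50% or more in at least one test.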
D: 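Histidine-tRNA ligase, Leishmania infantum (UniProt A4I591). Enzyme assay of histidyl-tRNA synthetase; the read-out is not stated. Tested at 30 µM. Direction is inferred from retests: higher values go with stronger inhibition. The assay is labelled LdHisRS but filed under L. infantum. Of about 69,000 compounds tested this way, about 410 (0.6%) reached 50% or more in at least one test.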

SMILES,A,B,C,D
c1cn(-c2nccnc2C2CCCN(C3CCOCC3)C2)cn1 (configuration not stated),-15.98,-10.47,-2.023,-2.797
COc1ccccc1NC(=O)CSC1CCc2ccccc2NC1=O (configuration not stated),10.53,-,0.5848,13.33
CS(=O)(=O)c1ccc(OCCNCc2cccc(O)c2)cc1,4.242,-6.133,-2.963,12.9
COc1cccc(F)c1C(C)NC(=O)NCc1ccnc(C)n1 (configuration not stated),0.4914,1.474,3.077,10.75
CCC1CN(CC(=O)NCCN(CC)CC)c2ccccc2S1 (configuration not stated),1.09,-6.281,2.177,20.65
Cc1cc2nc(-c3cn(C4CCNCC4)nn3)[nH]c2cc1C,-47.14,3.707,3.276,35.21
c1ccc2oc(N3CCCCC3Cn3cncn3)nc2c1 (configuration not stated),17.2,-19.23,3.984,27.69
COCCN(Cc1cccc(O)c1)Cc1ccccc1F,-4.869,3.453,0.1564,11.57
COc1cccc(CNC(=O)Nc2ccc3[nH]nnc3c2)c1OC,-0.1626,-58.52,0.3666,19.33
C1CC(NCc2nc(C3CC3)no2)CN(Cc2noc(C3CC3)n2)C1 (configuration not stated),0.5931,-1.183,-4.617,19.05
CCN1CCCC1CN(CCN(C)C)S(=O)(=O)c1ccc(C#N)cc1 (configuration not stated),-29.64,-11.11,-1.069,17.31
CN(Cc1ccc2nonc2c1)C(=O)c1ccc(C2CCCO2)s1 (configuration not stated),-,-39.57,1.032,17.5
Cc1nnc(N2CCC(CCn3ccnc3C)CC2)o1,2.609,-11.74,3.039,12.5
CN1CCC(Cc2noc(-c3cn(Cc4ccccc4Cl)nn3)n2)CC1,-35.33,-32.79,-5.857,11.67
Cc1nc[nH]c1C(=O)N1CCCC2(C1)C(=O)N(C)c1ccccc12 (configuration not stated),1.574,-11.68,0.6221,14.13
CN(C)C(C(=O)N1CCCC1)c1ccccc1F (configuration not stated),-0.4219,-3.969,0.7583,10.58
COc1ccc(NC(=O)c2cnc(C3CCN(C(C)=O)C3)nc2C)cc1 (configuration not stated),-8.959,3.413,1.893,4.196
CC(=O)N1CCN(C(=O)c2[nH]nnc2Nc2ccccc2F)CC1,3.671,-21.69,-0.8136,10
O=C(NC1CC1)[C@H]1CC[C@@H]2[C@@H](CCN2Cc2ccsc2)O1,1.629,-13.63,-2.766,2.857
Cn1ccc2c(-c3cc(N4CCOCC4)ncn3)ccnc21,2.427,14.28,-3.6,9.524
Cc1nccn1CC1CCCN1S(=O)(=O)Cc1cccc(F)c1 (configuration not stated),12.73,0.1526,4.802,7.143
CCc1ccc(C2COCCN2C(=O)Nc2cccc(C(C)=O)c2)o1 (configuration not stated),3.171,-15.14,-1.019,15
CC(=O)N1CC=C(n2c(=O)[nH]c3ccccc32)CC1,1.456,38.88,-,11.88
c1cncc(N2CCCC3(CCN(CC4CCCO4)CC3)C2)c1 (configuration not stated),-2.096,-16.48,-4.344,15.28
Cc1cc(NCCc2c[nH]cn2)nc(-c2cccnc2)n1,1.942,-37.72,-3.785,15.29
CNC(=O)[C@@H]1COC[C@H]2CN(C(=O)COc3ccccc3)C[C@H]21,-0.6342,-41.68,-3.594,14.04
COc1c(C2CCCN2c2ncnc3ccsc23)c(C)nn1C (configuration not stated),-0.4348,-4.375,-0.09633,4.712
CN1C(=O)CC(N(C)Cc2nc3ccccc3c(=O)[nH]2)C1=O (configuration not stated),9.96,8.129,0.8596,24.66
CCn1cnnc1CNC(=O)N1CCN(Cc2ccsc2)CC1,1.567,-13.75,-6.27,7.965
CCC(C)N1C(=O)c2ccc(C(=O)NCCc3c[nH]cn3)cc2C1=O (configuration not stated),1.018,-80.46,-3.333,7.692
Nc1nccnc1C1CN(C(=O)COc2cccnc2)CCO1 (configuration not stated),-0.7282,-6.118,6.554,22.86
O=C(NC1CCNC1)C1(N2CCCCC2)Cc2ccccc2C1 (configuration not stated),8.081,-16.08,2.452,15.96
Cc1nc(NC(=O)CN2CCc3c(nc(C(C)C)n3C)C2)sc1C,-4.051,-41.38,2.554,23.08
CC(=O)N1CCC2(CC1)CC(N1CCOCC1)c1ccc(C)cc12 (configuration not stated),0.9662,-19.72,-11.27,5.051
Cn1cc(CN2CCC(Cn3cc(-c4ccccc4)nn3)CC2)cn1,-0.2049,-24.48,-4.513,4.286
COCc1nn(C)c2c1CN(C(=O)c1ccno1)CC2,9.937,-30.05,-4.017,12.28
OCCN1CCCC(c2cccc(-c3ccccc3F)n2)C1 (configuration not stated),-5.085,-10.75,-4.896,2.797
Cc1nc(CC(=O)N(CCN2CCOCC2)Cc2ccco2)c(C)s1,0.8444,-6.434,-1.377,13.6
CC(=O)N1C[C@@H]2CN(S(=O)(=O)C3CC3)CCO[C@@H]2C1,4.444,-,-,10
O=C(COc1cccc(F)c1)N1C[C@@H](O)[C@H](N2CCOCC2)C1,1.942,-,-,15.94
O=C1CCC2(CCN(Cc3nccs3)CC2)N1Cc1ccccc1,0.2591,-25.36,4.229,9.489
CCN1CCC2(CC1)CC(NCc1ccncc1)c1ccccc1O2 (configuration not stated),7.018,15.19,1.521,25.64
Cn1ccc2cc(C(=O)NC3CCOC(C)(C)C3)ccc21 (configuration not stated),0.6904,-13.34,-3.002,10.42
Brc1cnc(NCCCOCC2CCOC2)nc1 (configuration not stated),-10.95,3.624,-4.681,10.96
O=c1[nH]nc2c(S(=O)(=O)N3CCCCC3)cccn12,2.179,5.146,-1.961,23.91
Cn1cnnc1C1CCN(C(=O)c2cc3c(s2)CCC3)CC1,2.041,-11.74,-1.594,14.55
CCC(=O)N1CC[C@H]2C(=O)N(Cc3ccc(OC)cc3)CCO[C@H]2C1,5.072,-23.57,10.36,13.13
c1ccc(OC[C@H]2CCC[C@]23CN(Cc2nccs2)CCO3)nc1,11.14,-25.74,-0.5286,2.19
COc1ncc(C2(O)CCN(Cc3c(F)cccc3F)CC2)c(OC)n1,-0.9162,-15.5,-2.583,0
N#Cc1ccc(OC[C@]23COC[C@H]2CN(Cc2ccoc2)C3)nc1,1.11,2.757,-1.051,6.452
CC(C)Cc1cn(C2CCN(C(C)CCn3cccn3)CC2)nn1 (configuration not stated),3.713,-26.98,4.08,20
Cc1nc(C)c(CN(C)C2CCN(C(=O)OC(C)(C)C)CC2)s1,-1.961,-9.095,-0.8642,6.667
CCN(CC)C(=O)Cc1csc(C(C)C)n1,-2.746,-6.247,2.129,-4.225
Cc1cncc(C(=O)NCCSCc2cccs2)c1,-5.604,-8.031,-1.161,9.174
CC1CCCN(C(=O)Nc2ccc(F)c(C(N)=O)c2)C1 (configuration not stated),5.584,-4.526,-7.295,15.29

For reference, 4 entries once more:

{"smiles": "CCc1ccc(C2COCCN2C(=O)Nc2cccc(C(C)=O)c2)o1", "stereo": "configuration not stated", "A": 3.171, "B": -15.14, "C": -1.019, "D": 15}
{"smiles": "Cc1nc(CC(=O)N(CCN2CCOCC2)Cc2ccco2)c(C)s1", "A": 0.8444, "B": -6.434, "C": -1.377, "D": 13.6}
{"smiles": "Cc1nc(NC(=O)CN2CCc3c(nc(C(C)C)n3C)C2)sc1C", "A": -4.051, "B": -41.38, "C": 2.554, "D": 23.08}
{"smiles": "CCC(C)N1C(=O)c2ccc(C(=O)NCCc3c[nH]cn3)cc2C1=O", "stereo": "configuration not stated", "A": 1.018, "B": -80.46, "C": -3.333, "D": 7.692}

From ChEMBL document CHEMBL3988442, “University of Dundee, Small-Polar-MMV Screening Library” (2021).